These are yes or no findings as the source states them, for the method shown. In cells and extracts the contact can be indirect. Where a sequence is shown, tags or fusion partners need not be part of it.
Molecular target: adenine nucleotide translocase (ANT), neonatal rat cardiomyocyte mitochondria (rat)
Assay: co-immunoprecipitation with anti-HA beads from NRVCM mitochondrial extract, immunoblot for ANT

binding: no binding
B1: αBC-AAE with an N-terminal HA tag (protein, not shown: small tags and cut ends)
chain: DIAIHHPWIRRPFFPFHAPSRLFDQFFGEHLLESDLFSTATSLAPFYLRPPSFLRAPEWIDTGLSEMRMEKDRFSVNLDVKHFSPEELKVKVLGDVIEVHGKHEERQDEHGFISREFHRKYRIPADVDPLTITSSLSSDGVLTVNGPRKQASGPERTIPITREEKPAVTAAPKK

— patent US20120124684A1
